No constants are given. Whether binding was seen depends on the method and setting. Binding seen in cells or lysates may run through a third protein. A yes stands for co-enrichment or nearness to the bait. Other partners may have been found.

Assay [1] concerns the target T1, InR (Drosophila Melanogaster) (UniProt P09208).
T1 sequence: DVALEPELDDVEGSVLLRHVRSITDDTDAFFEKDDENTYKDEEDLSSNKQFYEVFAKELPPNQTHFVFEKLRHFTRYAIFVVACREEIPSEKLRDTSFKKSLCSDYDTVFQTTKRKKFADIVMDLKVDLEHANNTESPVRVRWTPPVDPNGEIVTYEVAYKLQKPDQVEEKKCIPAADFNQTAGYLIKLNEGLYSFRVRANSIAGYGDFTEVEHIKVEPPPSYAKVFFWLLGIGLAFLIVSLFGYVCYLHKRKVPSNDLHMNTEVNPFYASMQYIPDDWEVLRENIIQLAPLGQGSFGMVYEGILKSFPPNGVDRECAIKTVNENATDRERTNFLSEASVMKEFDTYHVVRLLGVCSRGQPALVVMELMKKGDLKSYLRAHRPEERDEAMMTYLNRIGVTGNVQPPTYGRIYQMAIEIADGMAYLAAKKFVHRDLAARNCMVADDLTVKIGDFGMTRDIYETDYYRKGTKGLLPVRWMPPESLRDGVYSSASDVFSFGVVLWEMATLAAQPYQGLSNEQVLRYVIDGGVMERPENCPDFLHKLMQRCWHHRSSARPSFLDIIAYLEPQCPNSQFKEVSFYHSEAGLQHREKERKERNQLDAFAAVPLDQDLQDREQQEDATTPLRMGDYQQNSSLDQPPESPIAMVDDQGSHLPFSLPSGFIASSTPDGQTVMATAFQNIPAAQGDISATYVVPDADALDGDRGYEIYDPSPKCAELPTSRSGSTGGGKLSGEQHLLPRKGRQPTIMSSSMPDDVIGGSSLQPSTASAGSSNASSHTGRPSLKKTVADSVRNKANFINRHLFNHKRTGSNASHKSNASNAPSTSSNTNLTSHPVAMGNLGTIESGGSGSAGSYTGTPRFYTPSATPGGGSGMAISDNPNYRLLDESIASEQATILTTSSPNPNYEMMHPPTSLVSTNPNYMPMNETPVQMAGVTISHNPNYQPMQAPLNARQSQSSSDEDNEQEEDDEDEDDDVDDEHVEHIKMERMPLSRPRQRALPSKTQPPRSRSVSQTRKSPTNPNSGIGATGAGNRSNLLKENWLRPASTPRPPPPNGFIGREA
The assay is described as follows: affinity purification with mass spectrometry; TAP/MS of the Drosophila Insulin pathway dataset: TAP-tagged bait pulled down via its tag from cell lysates, peptides identified by MS, spectral counts in replicates; time points 0, 10 and 30 minutes; negative control purifications; bait-prey pairs scored as significant by PPIRank (and SAINT).

The target of assay [2] is Pi3K21B (Drosophila Melanogaster). The description is as above.

B1: chico (protein, UniProt Q9XTN2 1-968)
chain: MASISDDGMALSGYLKKLKTMKKKFFVLYEETSTSAARLEYYDTEKKFLQRAEPKRVIYLKNCFNINRRLDTKHRFVIVLSSRDGGFGIVLENENDLRKWLDKLLVLQRNIANSNGTAHSPYDHVWQVVIQKKGISEKVGITGTYHCCLTSKSLTFVCIGPEKTPNGEDRVASIEILLTTIRRCGHASPQCIFYVELGRQSVLGSGDLWMETDNAAIATNMHNTILSAMSAKTESNTNLINVYQNRPDLSHEPMRKRSSSANEASKPINVNVIQNSQNSLELRSCSSPHNYGFGRERCDSLPTRNGTLSESSNQTYFGSNHGLRSNTISGIRPHSTNKHSNSPTFTMPLRCSESEESSISVDESDDNGSFSHYRLNTRSSETAIPEENIDDFASAELFSKVTEQNVSDENYIPMNPVNPTDAIHEKEKADMQRLEDASLHFNFPEHASEKLAKDFDLDSDNQCCRPIRAYSIGNKVEHLKFNKRLGHLNDTGQNPNRVRAYSVGSKSKIPRCDLQRVVLVEDNKHEFTANRSQSSITKEGTSYGSSANRQKKSTSAPLLSLKNQINSDRMSDLMEIDFSQATNLEKQKFIKNNEIPKYIENVFPKAPRTDSSSLTLHATSQKDIFNGTKLNNTAITSEDGYLEMKPVGNGYTPSSNCLPMKVEKLKLSDYQTAPPLTATAAPVHDLNKISTYNISAEKWREQPSRSEEKKSNSPLNDNTFSSKPTNVESTSKSHDVHSANQIDCEKVCAQSSDKLNNHLADKIVENNNLDIGGHEEKKLVHSISSEDYTQIKDKSNDFTKFNEAGYKILQIKSDSSLISSKLYQKGIHKDNLERSQRLTESVNTIPDNATATAVSSSSLTKFNINSAKPAAAADSRSTGTDPSTPQNILQIKDLNFPSRSSSRISQPELHYASLDLPHCSGQNPAKYLKRGSRESPPVSACPEDGNTYAKIDFDQSDSSSSSSNIFNT
B1: the binding result in assay [1] and in assay [2] was “binds” each time.
